No constants are given. Whether binding was seen depends on the method and setting. Some binding calls cover weakened binding; strength is not graded here.
Target: Fab 1
Assay: KinExA solution equilibrium titration: cyno TSLP titrated into fixed Fab 1 (1000 pM filled diamonds, 40 pM open squares); free Fab 1 captured on hu TSLP-coated beads

Sequences of proteins named here, by UniProt entry; tags and fusion partners are left off. A change or cut given only in a name is not applied to a line headed by its entry. A line that says so, or that is headed by a name, gives the form on record, which may keep a tag or linker.
cyno TSLP (A0A7N9CAT7, form named): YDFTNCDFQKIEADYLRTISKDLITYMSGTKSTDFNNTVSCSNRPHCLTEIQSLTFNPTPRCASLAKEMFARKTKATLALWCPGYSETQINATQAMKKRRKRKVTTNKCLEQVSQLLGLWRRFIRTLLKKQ

For “cyno TSLP (from UniProt A0A7N9CAT7 29-159) (ligand)”, the binding was “binds”.

Source: patent US20240199730A1
